## Results of single-concentration screens

The chains behind the UniProt entries cited, without tags or fusion partners. Residues count along the entry.
UniProt P9WPC5, whole entry: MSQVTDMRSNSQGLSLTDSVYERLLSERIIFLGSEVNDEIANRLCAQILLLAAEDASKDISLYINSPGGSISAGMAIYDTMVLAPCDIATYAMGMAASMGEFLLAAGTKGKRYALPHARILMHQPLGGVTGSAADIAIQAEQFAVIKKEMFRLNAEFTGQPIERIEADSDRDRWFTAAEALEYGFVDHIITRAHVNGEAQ
UniProt P9WPC3, whole entry partner: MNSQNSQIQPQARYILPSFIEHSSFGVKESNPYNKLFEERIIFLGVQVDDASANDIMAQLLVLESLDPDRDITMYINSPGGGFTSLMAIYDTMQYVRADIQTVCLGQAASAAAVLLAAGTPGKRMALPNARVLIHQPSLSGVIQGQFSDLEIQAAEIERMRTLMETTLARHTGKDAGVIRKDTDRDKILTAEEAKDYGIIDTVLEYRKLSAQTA
UniProt Q4DA54, 1-478: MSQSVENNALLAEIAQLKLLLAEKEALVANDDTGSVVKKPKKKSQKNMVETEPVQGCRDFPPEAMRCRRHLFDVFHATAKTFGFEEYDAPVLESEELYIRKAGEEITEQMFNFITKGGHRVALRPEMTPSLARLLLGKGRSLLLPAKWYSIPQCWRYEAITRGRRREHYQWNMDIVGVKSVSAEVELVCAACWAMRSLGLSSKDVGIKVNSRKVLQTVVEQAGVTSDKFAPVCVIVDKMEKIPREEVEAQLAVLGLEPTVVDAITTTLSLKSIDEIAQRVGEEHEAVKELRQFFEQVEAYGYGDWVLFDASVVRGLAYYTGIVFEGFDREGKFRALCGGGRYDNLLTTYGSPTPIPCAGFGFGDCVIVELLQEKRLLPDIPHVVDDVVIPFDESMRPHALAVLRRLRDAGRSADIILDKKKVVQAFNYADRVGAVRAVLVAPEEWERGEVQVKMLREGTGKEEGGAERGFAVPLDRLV
UniProt Q8IDJ8, 1-583: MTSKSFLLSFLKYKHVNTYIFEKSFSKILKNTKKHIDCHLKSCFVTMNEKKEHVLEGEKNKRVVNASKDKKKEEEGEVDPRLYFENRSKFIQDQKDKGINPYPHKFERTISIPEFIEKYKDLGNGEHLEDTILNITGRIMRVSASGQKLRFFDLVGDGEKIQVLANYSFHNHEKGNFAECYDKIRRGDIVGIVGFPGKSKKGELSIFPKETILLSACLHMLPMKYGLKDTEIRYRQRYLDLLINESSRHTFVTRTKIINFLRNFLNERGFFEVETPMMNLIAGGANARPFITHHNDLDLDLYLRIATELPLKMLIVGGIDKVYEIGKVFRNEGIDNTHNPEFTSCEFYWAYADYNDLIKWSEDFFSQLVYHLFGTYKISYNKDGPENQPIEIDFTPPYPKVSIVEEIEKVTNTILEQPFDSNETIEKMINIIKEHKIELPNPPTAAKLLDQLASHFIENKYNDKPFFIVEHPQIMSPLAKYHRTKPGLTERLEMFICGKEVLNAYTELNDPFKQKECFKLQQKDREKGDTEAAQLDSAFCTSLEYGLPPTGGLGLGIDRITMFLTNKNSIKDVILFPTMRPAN
UniProt P9WNZ1, whole entry: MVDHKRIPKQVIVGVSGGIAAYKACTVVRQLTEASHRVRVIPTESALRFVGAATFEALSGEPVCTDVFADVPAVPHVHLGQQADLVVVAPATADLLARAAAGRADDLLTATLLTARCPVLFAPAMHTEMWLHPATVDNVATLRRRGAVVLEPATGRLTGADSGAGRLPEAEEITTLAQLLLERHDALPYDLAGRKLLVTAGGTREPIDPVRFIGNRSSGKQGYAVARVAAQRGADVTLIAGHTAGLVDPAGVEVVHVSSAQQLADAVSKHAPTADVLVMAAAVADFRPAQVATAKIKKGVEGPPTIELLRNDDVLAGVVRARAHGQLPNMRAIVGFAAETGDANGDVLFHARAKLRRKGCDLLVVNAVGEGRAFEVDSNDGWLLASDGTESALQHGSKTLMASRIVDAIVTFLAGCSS
UniProt I6X8D2, whole entry: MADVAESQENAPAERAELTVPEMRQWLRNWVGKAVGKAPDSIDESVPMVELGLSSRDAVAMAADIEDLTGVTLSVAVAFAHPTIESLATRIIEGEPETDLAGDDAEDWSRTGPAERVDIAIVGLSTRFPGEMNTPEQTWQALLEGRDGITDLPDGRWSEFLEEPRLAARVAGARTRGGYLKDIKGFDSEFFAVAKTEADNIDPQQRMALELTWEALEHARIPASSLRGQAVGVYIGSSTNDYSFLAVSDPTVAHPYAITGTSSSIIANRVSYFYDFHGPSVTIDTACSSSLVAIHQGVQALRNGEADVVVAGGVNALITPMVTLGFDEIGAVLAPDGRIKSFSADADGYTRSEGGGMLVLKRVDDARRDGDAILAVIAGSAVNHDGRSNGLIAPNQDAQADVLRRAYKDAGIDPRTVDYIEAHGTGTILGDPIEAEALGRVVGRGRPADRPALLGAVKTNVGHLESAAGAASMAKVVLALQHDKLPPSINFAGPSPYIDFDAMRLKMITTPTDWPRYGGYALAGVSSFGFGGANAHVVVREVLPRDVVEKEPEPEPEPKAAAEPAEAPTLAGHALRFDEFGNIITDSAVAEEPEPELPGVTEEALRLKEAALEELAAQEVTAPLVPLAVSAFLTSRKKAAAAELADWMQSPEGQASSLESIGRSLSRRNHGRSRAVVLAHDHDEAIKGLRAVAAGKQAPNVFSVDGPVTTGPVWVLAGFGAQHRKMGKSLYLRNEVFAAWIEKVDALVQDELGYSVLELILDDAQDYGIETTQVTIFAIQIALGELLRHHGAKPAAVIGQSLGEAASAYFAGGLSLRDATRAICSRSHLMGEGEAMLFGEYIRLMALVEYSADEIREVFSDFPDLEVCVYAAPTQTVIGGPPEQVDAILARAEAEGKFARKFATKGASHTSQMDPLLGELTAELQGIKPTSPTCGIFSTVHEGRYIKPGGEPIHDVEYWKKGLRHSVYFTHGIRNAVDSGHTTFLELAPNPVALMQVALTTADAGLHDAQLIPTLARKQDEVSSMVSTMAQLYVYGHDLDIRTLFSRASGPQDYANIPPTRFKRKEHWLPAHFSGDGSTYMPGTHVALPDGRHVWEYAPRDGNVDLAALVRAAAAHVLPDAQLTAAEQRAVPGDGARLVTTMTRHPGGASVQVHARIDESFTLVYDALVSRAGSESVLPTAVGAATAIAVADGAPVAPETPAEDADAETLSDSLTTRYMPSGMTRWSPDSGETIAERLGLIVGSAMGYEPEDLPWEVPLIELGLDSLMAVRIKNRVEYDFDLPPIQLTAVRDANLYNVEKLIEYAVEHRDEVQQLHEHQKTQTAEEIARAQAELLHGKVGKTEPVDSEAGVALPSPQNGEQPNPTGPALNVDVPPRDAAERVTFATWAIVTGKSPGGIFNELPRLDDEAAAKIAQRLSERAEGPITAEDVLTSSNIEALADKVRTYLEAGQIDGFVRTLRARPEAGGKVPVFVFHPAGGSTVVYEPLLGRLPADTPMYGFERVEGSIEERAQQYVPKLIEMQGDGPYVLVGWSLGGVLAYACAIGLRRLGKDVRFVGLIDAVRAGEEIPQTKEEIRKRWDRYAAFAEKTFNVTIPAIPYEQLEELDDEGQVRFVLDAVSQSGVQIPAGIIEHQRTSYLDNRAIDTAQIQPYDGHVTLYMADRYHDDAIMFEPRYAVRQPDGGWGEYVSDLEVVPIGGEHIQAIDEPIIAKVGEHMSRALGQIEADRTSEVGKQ

ClpP1P2: 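ClpP1P2, Mycobacterium tuberculosis (UniProt P9WPC5 and UniProt P9WPC3). Protease assay of ClpP1P2, read by the AMC dye that it sets free. Compounds at 50 µM. Higher reads as stronger inhibition, judged from the few compounds that gave an IC50. Most other retested compounds had strongly negative values. About 69,000 compounds were tested under these conditions; 0.015% (about 10) showed 50% or more at least once.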
TcHisRS: 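Histidine-tRNA ligase, Trypanosoma cruzi CL Brener (UniProt Q4DA54). Enzyme assay of histidyl-tRNA synthetase; the read-out is not stated. Concentration: 30 µM. Direction is inferred from retests: higher values go with stronger inhibition. Of about 69,000 compounds tested this way, about 31 (0.045%) reached 50% or more in at least one test.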
PfKRS1: 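Enzyme assay of the cytosolic lysyl-tRNA synthetase in 384-well plates, read by luminescence. Target: Lysine-tRNA ligase, Plasmodium falciparum 3D7 (UniProt Q8IDJ8). Concentration: 30 µM. Direction is inferred from only a few compounds that gave an IC50; most scored high, so higher reads as stronger inhibition. Of about 69,000 compounds tested this way, about 49 (0.071%) reached 50% or more in at least one test.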
CoaBC: 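Coenzyme A biosynthesis protein CoaBC, Mycobacterium tuberculosis (UniProt P9WNZ1). Enzyme assay of CoaBC with a phosphate dye (Biomol Green) read at 650 nm. Concentration: 30 µM. Higher reads as stronger inhibition, judged from the few compounds that gave an IC50. Most strong results did not repeat in a second test. Of about 67,000 compounds tested this way, about 40 (0.06%) reached 50% or more in at least one test.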
Leishmania in macrophages: 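Cell assay of Leishmania donovani living inside macrophages; the read-out is not stated. Concentration: 30 µM. Higher reads as stronger inhibition (inferred: compounds with an IC50 in retests scored well above the rest). About 69,000 compounds were tested under these conditions; 1.5% (about 1,000) showed 50% or more at least once.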
Pks13 thioesterase: 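Enzyme assay of the thioesterase domain of polyketide synthase 13; the read-out is not stated. Target: Polyketide synthase Pks13, Mycobacterium tuberculosis (UniProt I6X8D2). Tested at 30 µM. Higher reads as stronger inhibition (inferred from which compounds were picked for retests). About 67,000 compounds were tested under these conditions; 0.46% (about 300) showed 50% or more at least once.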

Results are given as percent effect.
The controls that fix the scale are not given in the record; negative values are as filed.
Compounds were drawn at random from those tested, without regard to their results.

Cc1cccc(CO[C@H]2CN(c3nnc(C)s3)[C@@H]3CCCO[C@H]23)n1 gave ClpP1P2: -5.405%; TcHisRS: 4.478%; PfKRS1: 3.74%; CoaBC: 10.81%; Pks13 thioesterase: -25.39%.
CN1[C@H]2CC[C@@H]1CN(C(=O)c1ccc(-c3ccccc3)[nH]1)CC2 gave ClpP1P2: -4.616%; TcHisRS: 21.39%; PfKRS1: 2.375%; CoaBC: 7.407%; Pks13 thioesterase: -20.42%.
CN(C(=O)NCc1nccn1Cc1ccccc1)C1CC1 gave ClpP1P2: -19.74%; TcHisRS: 4.386%; PfKRS1: 7.447%; CoaBC: -0.8092%; Leishmania in macrophages: 26.11%; Pks13 thioesterase: -12.8%.
CCOCC1CN(C(=O)c2cscn2)Cc2nnn(CC3CC3)c21 (stereo not shown) gave ClpP1P2: 14.52%; TcHisRS: -1.657%; PfKRS1: -0.5705%; CoaBC: 5.141%; Leishmania in macrophages: -0.6538%; Pks13 thioesterase: -21.48%.
CN(CCNC(=O)NCc1ccsc1)C1CCCC1 gave ClpP1P2: -9.359%; TcHisRS: 0.8721%; PfKRS1: 2.026%; CoaBC: -5.006%; Leishmania in macrophages: 26.31%; Pks13 thioesterase: -7.811%.
CN1CCN(C(=O)N2CCC3(CCCN(C4CCOCC4)C3=O)C2)CC1 (stereo not shown) gave ClpP1P2: -10.08%; TcHisRS: 3.015%; PfKRS1: 4.234%; CoaBC: 6.947%; Leishmania in macrophages: -30.16%; Pks13 thioesterase: -11.85%.
OCCN1CCC(F)(F)C2(CCN(c3cnccn3)C2)C1 (stereo not shown) gave ClpP1P2: -3.52%; TcHisRS: 6.667%; PfKRS1: 8.399%; CoaBC: 6.098%; Pks13 thioesterase: 5.257%.
CN1CCOC(C(=O)Nc2ccc3c(c2)nc(C(C)(C)C)n3C)C1 (stereo not shown) gave ClpP1P2: 5.413%; TcHisRS: 0.5587%; PfKRS1: -2.696%; CoaBC: 5.242%; Leishmania in macrophages: 5.444%.
Cc1ccc2oc(C(=O)N3CCCC(n4ccnc4C)C3)cc2n1 (stereo not shown) gave ClpP1P2: -28.39%; TcHisRS: 3.812%; PfKRS1: -0.5957%; CoaBC: 1.579%; Leishmania in macrophages: 4.559%; Pks13 thioesterase: -17.94%.
[H][C@@]12CCCCN(C(=O)c3cnccn3)[C@]1([H])[C@@H](c1ccccc1)CCN2C gave Leishmania in macrophages: 41.32%.
Cc1ccccc1C(CNc1ncnc2c1CCNCC2)N(C)C (stereo not shown) gave ClpP1P2: -10.31%; TcHisRS: 8.081%; PfKRS1: -4.599%; CoaBC: -18.52%; Leishmania in macrophages: -7.029%; Pks13 thioesterase: -8.913%.
CCOc1cc(/C=C/c2ncc(C(=O)O)s2)ccc1O gave ClpP1P2: 16.28%; TcHisRS: 5.639%; PfKRS1: 1.524%; CoaBC: 3.394%; Leishmania in macrophages: 8.432%; Pks13 thioesterase: 41.85%.
Cl.Cn1ncc2c1CCCC2NCc1cccc(F)c1 (stereo not shown) gave Leishmania in macrophages: 4.9%.
[H][C@@]12COC[C@]1(C(=O)NCc1ccco1)CN(Cc1nc(C)cs1)C2 gave Leishmania in macrophages: 35.8%.
CNc1nc(C2CCCN(C(=O)C3CCCCC3)C2)nc2c1CNCC2 (stereo not shown) gave ClpP1P2: -11.14%; TcHisRS: 5.426%; PfKRS1: -0.3004%; CoaBC: -2.822%; Leishmania in macrophages: 30.37%; Pks13 thioesterase: 14.52%.
CN(Cc1ccn[nH]1)C(=O)CCC(=O)NC1CCCC1 gave ClpP1P2: -9.358%; TcHisRS: 2.632%; PfKRS1: 1.57%; CoaBC: 0.1233%; Leishmania in macrophages: -41.31%; Pks13 thioesterase: -15.49%.
CC(=O)N1CCC(Nc2cccc(OC(F)F)c2C)CC1 gave ClpP1P2: 0.02323%; TcHisRS: 2.222%; PfKRS1: 1.077%; CoaBC: -6.723%; Leishmania in macrophages: 6.851%; Pks13 thioesterase: -34.29%.

The values are deposited in ChEMBL (CHEMBL3988442, “University of Dundee, Small-Polar-MMV Screening Library” (2021)).